Test: Biphasic dissolution test (BiPHa+)
Type: in vitro ADME
Conditions: same in vitro biphasic dissolution conditions, in words
Description: This approach was chosen to simulate the gastrointestinal properties to obtain in vivo predictive results.
The transition to the organic phase can be understood as absorption of active substances into the blood.
To simulate the gastrointestinal properties to obtain in vivo predictive results, the pH-profile, bile salt concentration and gastrointestinal passage time were adjusted in the aqueous phase to mimic human gut conditions. An organic phase of 1-decanol above the aqueous phase imitated the fraction absorbed from the gut. As a test model, the profile of a person without prior food intake was chosen. Therefore, FaSSIF-V2 medium, which represents the bile salts concentration of a fasted human was used. […] To generate an in-situ biorelevant aqueous medium for the fasted state, biorelevant surfactants, namely sodium-taurocholate (3 mM) and lecithin (0.2 mM), were added.
Prior to the start of the experiments, both phases, 1-decanol and the acidic aqueous phase, were saturated with each other. First, the respective formulation was added (Table 2) to 50 mL HCl (0.1 M), simulating the stomach. During the first 30 min the formulation disintegrated/dispersed in 50 ml of 0.1 M HCl. […]

## COc1ccc2cc([C@H](C)C(=O)O)ccc2c1 [Naproxen]
  result of propylene carbonate formulation compared to commercially available market formulation: even better results

Reference: patent US12728134B2, “Liquisolid pharmaceutical formulation and process for manufacturing” (RHEINISCHE FRIEDRICH-WILHELMS-UNIVERSITÄT BONN, priority 2020, dated 2026)
